This is an account of results in article doi:10.1101/2024.10.13.618061 (bioRxiv, 2024).

For assay [1], the target named is wheat Sr35 (Triticum monococcum; TmSr35) [change]/[change], untagged (Triticum monococcum) (UniProt S5ABD6). In words: SEC.
Assay [2] has the same target. In words: cryo-EM structure.

No constants are given. Whether binding was seen depends on the method and setting. Some binding calls cover weakened binding; strength is not graded here. Sequences can lack the tags named with a protein.

B1: wheat Sr35 (Triticum monococcum; TmSr35) [change]/[change], untagged (receptor)
chain: MEIAMGAIGSELPKEGELLIGEITLEKKVRKGIESLITELKLMQAVLSKVSKVPADQLDEGVKIWAGNVKELSYQMEDIVDAFMVRVGDGGESTNPKNRVKKILKKVKKLFKNGKDLHRISAALEEVVLQAKQLAELRQRYEQEMRDTSANTSVDPRMMALYTDVTELVGIEETRDKLINMLTEGDDWSKHPLKTISIVGFGGLGKTTLAKAAYDKIKVQFDCGAFVSVSRNPEMKKVLKDILYGLDKVKYENIHNAARDEKYLIDDIIEFLNDKRYLIVIDDIWNEKAWELIKCAFSKKSPGSRLITTTRNVSVSEACCSSEDDIYRMEPLSNDVSRTLFCKRIFSQEEGCPQELLKVSEEILKKCGGVPLAIITIASLLANKGHIKAKDEWYALLSSIGHGLTKNRSLEQMKKILLFSYYDLPSYLKPCLLYLSIFPEDREIRRARLIWRWISEGFVYSEKQDISLYELGDSYFNELVNRSMIQPIGIDDEGKVKACRVHDMVLDLICSLSSEENFVTILDDPRRKMPNSESKVRRLSIQNSKIDVDTTRMEHMRSVTVFSDNVVGKVLDISRFKVLRVLDLEGCHVSDVGYVGNLLHLRYLGLKGTHVKDLPMEIGKLQFLLTLDLRGTKIEVLPWSVVQLRRLMCLYVDYGMKLPSGIGNLTFLEVLDDLGLSDVDLDFVKELGRLTKLRVLRLDFHGFDQSMGKALEESISNMYKLDSLDVFVNRGLINCLSEHWVPPPRLCRLAFPSKRSWFKTLPSWINPSSLPLLSYLDITLFEVRSEDIQLLGTLPALVYLEIWNYSVFEEAHEVEAPVLSSGAALFPCATECRFIGIGAVPSMFPQGAAPRLKRLWFTFPAKWISSENIGLGMRHLPSLQRVVVDVISEGASREEADEAEAALRAAAEDHPNRPILDIW
For the molecule B1, the binding result in assay [1] and in assay [2] was “binds” in each case.
